The values are deposited in ChEMBL (CHEMBL3988442, “University of Dundee, Small-Polar-MMV Screening Library” (2021)).

By UniProt entry, the sequences of proteins in these tests, tags left out.
UniProt P9WFT3, whole entry: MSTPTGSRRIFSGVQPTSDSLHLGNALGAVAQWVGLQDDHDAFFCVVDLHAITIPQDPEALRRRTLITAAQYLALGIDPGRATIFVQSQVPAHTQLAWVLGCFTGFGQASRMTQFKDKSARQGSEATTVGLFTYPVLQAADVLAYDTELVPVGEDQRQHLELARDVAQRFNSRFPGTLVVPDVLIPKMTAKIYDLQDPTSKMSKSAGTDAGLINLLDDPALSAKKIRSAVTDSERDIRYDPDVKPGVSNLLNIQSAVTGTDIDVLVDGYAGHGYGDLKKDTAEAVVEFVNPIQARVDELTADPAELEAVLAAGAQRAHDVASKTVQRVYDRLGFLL

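Enzyme assay of tryptophanyl-tRNA synthetase; the read-out is not stated. Target: Tryptophan-tRNA ligase, Mycobacterium tuberculosis (UniProt P9WFT3). Compounds at 10 µM. Direction is not recorded; retested compounds ran higher, which suggests that high means inhibition. About 65,000 compounds were tested under these conditions; 0.098% (about 64) showed 50% or more at least once.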

Values are the deposited “Percent Effect”, in %.
The record does not define 0% and 100%; most values in the screen are far below 50% and negative numbers occur (in some assays of this library far below -100).
Compounds were drawn at random from those tested, without regard to their results.

| compound | percent effect |
|---|---|
| `CCN(CC)C(=O)C1CCCN1C(=O)c1cccc(-n2cnnn2)c1` (centres unmarked) | -5.13 |
| `O=C(O)c1ccn(-c2ccccc2NS(=O)(=O)c2cccc(F)c2)n1` | 3.114 |
| `CC(C)(C)CCN1CCN(Cn2nccc2-c2cccnc2)CC1` | -2.408 |
| `Cc1cc(OCC(=O)N2CCCC(c3nccs3)C2)no1` (centres unmarked) | -4.47 |
| `CN(C)Cc1nnc(C2CCN(c3ncccc3Cl)CC2)n1C1CC1` | 0.4617 |
| `COCCCNc1c(-c2ccc(C)cc2)c(=O)c1=O` | 0.3393 |
| `O=C(CN1CCOC(Cn2cccn2)C1)NCc1ccccn1` (centres unmarked) | -4.217 |
| `CCC(Nc1nnnn1-c1ccccc1)C(=O)Nc1ccccc1C` (centres unmarked) | -5.146 |
| `CCc1nc(CN(C)C2CCN(CC(F)(F)F)C2)no1` (centres unmarked) | -5.321 |
| `CCN(C)c1ncnc2c1CCN(C(=O)c1cccn1C)CC2` | 8.87 |
| `Cc1nc(CN(Cc2cccnc2)Cc2ccsc2)c[nH]1` | -1.107 |
| `CCCc1cc(C(=O)N2CCCC2c2cccnc2)[nH]n1` (centres unmarked) | 1.921 |
| `COc1ncnc(N(C)C)c1NC(=O)c1cscc1C` | -7.497 |
| `c1cnc(N2C[C@@H]3CC[C@H](C2)N(Cc2ccsc2)C3)nc1` | 5.916 |
| `CCn1c(SCC(=O)N2CCOCC2)nc2cc(C)[nH]c2c1=O` | 0.4772 |
| `CCOc1ccc(CC(=O)N(CCC(=O)OC)CC2CCCO2)cc1` (centres unmarked) | -5.34 |
| `Cn1nc2c(cc1=O)CN(Cc1nc(N)c3ccccc3n1)CC2` | 4.971 |
| `Cn1cnc2c1CCN(Cc1csc(Cc3ccccc3)n1)C2` | -1.12 |
| `COc1ncccc1CNC(=O)CN1CCCCCC1=O` | 0.7524 |
| `CC(C)c1n[nH]c(C2CN(C(=O)CCn3ccccc3=O)CCO2)n1` (centres unmarked) | -2.242 |
| `O=C(O)c1csc(S(=O)(=O)N2CCCc3cc(OC(F)F)ccc32)c1` | 3.469 |
| `CCCc1nc(C)c(CNc2nc(C)nc3onc(C)c23)s1` | 7.424 |
| `Cn1c(C2CC2)nc2c1CCN(CCOc1ccc(C#N)cc1)C2` | 0.3997 |
| `Cc1nccc(C2CCCCN2Cc2ccccc2)n1` (centres unmarked) | -7.843 |
| `CCOCC1CN(C(=O)N2CCCC2)Cc2cnn(CC)c21` (centres unmarked) | 0.382 |
| `CNc1nccnc1C1CN(C(=O)c2cc[nH]n2)CCO1` (centres unmarked) | -7.236 |
| `CC(C)(C)C1SCC(=O)Nc2c1c(O)nn2C1CCCC1` (centres unmarked) | 3.34 |
| `c1csc(CN2CCCC3(COCCN(c4cnccn4)C3)C2)c1` (centres unmarked) | -3.909 |
| `C=C(C)CN(CC)S(=O)(=O)c1c(F)cc(NC(C)=O)cc1F` | -4.886 |
| `Cc1ccccc1NC(=O)NCC(C)(O)c1cccs1` (centres unmarked) | 0.4428 |
| `c1ccc(Cn2cccn2)c(CN2CCC3(CCCNC3)C2)c1` (centres unmarked) | 0.7971 |
| `c1ccc(-n2ccc(CN3CCCC3Cn3cncn3)n2)cc1` (centres unmarked) | -7.542 |
| `CN1CCC2(Cc3ccccc3CN(C(=O)c3ccc(Cl)cc3)C2)C1` (centres unmarked) | 12.71 |
| `CN(C)[C@H]1CCCCN(Cc2ccccc2Cn2cccn2)C1` | 1.104 |
| `CCc1nc(CN2CCN(C(=O)c3cc(C)no3)CC2)cs1` | -0.3298 |
| `Cc1ccc(C(=O)N2CCn3c(COCC4CC4)cnc3C2C)s1` (centres unmarked) | -0.5231 |
| `Cn1ccnc1SCCNc1nccc(C(F)(F)F)n1` | 14.94 |
| `COCCn1cc2c(n1)C(CNCc1ccsc1)OCC2` (centres unmarked) | -6.261 |
| `OC1(CNCCSc2ccccn2)CCCNC1` (centres unmarked) | -1.632 |
| `COc1cc(Cl)c(C)cc1NC(=O)CCNc1ccc(C#N)cn1` | 5.811 |
| `COc1cccc(CN(C)C(=O)Nc2ccc3c(c2)OCCO3)c1` | 4.131 |
| `Cc1sc(N)nc1-c1ccc(Cl)cc1` | -1.569 |
| `O=C(C1CC=CC1)N1C[C@@H]2CN(Cc3ccsc3)CCO[C@@H]2C1` | -1.895 |
| `O=C(CCS(=O)(=O)c1ccccc1)N1CCCC(n2cccn2)C1` (centres unmarked) | -4.959 |
| `COc1ccccc1C(C)CNC(=O)c1[nH]ncc1Br` (centres unmarked) | -5.46 |
| `O=C(c1cc(Cn2ccc3ccccc32)[nH]n1)N1CCC[C@H]1CO` | 2.001 |
| `Cc1cccc(NC2CCN(C(=O)Nc3cn[nH]c3)CC2)n1` | -8.003 |
| `Cc1ccccc1CN1C[C@@H]2CC[C@H](C1)N(CC1CCC1)C2=O` | -0.2174 |
| `CNc1nc(C(=O)N2CCCn3nc(C(=O)N4CCCC4)cc3C2)cs1` | 3.482 |
| `COCCOc1ccccc1NC(C)C(=O)NC(=O)NC(C)(C)C` (centres unmarked) | -1.876 |
| `O=C(CCc1cscn1)NS(=O)(=O)c1ccc2ccccc2c1` | 5.308 |
| `CS(=O)(=O)N1C[C@@H]2CC[C@H](C1)N(C/C=C/c1ccc(F)cc1)C2` | -2.279 |
| `CC(=O)Nc1cccc(C(=O)N(C)C(C)Cc2cc(C)ccn2)c1` (centres unmarked) | 3.527 |
| `Cc1oc(-c2cc(F)cc(F)c2)nc1CN1C[C@@H](C)NC[C@@H]1C` | 6.75 |
| `O=C(Nc1ccc(F)cc1)C(c1ccccc1)N1CCOCC1` (centres unmarked) | 4.562 |
| `Cc1ccc(CN(CCCn2ccnc2)Cc2cnn(C)c2)s1` | 7.71 |
| `CC(=O)NCCNC(=O)c1sc(-c2ccc(Cl)cc2)nc1C` | -3.58 |
| `Cc1cc(-c2nn3c(C)nnc3s2)n[nH]1` | -4.631 |
| `COc1ccc(CC(=O)N2Cc3nccn3CC(CN(C)C)C2)cc1` (centres unmarked) | -2.532 |
| `CCc1ccc(CN2Cc3nccn3CC(Cn3cncn3)C2)o1` (centres unmarked) | -0.2945 |
| `CC(C)CNC(=O)CSC1CCc2ccccc2NC1=O` (centres unmarked) | -2.967 |
| `c1ccc(CN2CCc3ncnc(-c4ccsc4)c3CC2)nc1` | 1.133 |
| `CCCc1nc(C)cc(N2CCNC(C(=O)NC3CC3)C2)n1` (centres unmarked) | 0.9518 |
| `O=C(NCc1ccccn1)[C@]12COC[C@H]1CN(Cc1ccccc1F)C2` | -0.8167 |
| `COCC(=O)N1CCC2(CCN(c3cnn(C)c3)C2=O)C1` (centres unmarked) | -3.453 |
| `CC(=O)Nc1nc(CS(=O)(=O)Cc2ccccc2)cs1` | 3.11 |
| `OCC1CCCN1c1cc(NCc2ccccn2)ncn1` (centres unmarked) | 1.088 |
| `COC(=O)c1cc(OCC2CCC2)cc(C(=O)N[C@@H]2CCCNC2)c1` | 4.487 |
| `CCc1nc(CN2CCCC(N(C)Cc3nc(C)c(C)o3)C2)no1` (centres unmarked) | -2.956 |
| `Cn1c(CS(=O)(=O)c2ccc(Cl)cc2)cc(=O)n(C)c1=O` | -9.593 |
| `COc1nn(C)c2c1CCCN(C(=O)c1ccsc1)C2` | 0.5141 |
| `COCC(=O)NC(C)c1cccc(Br)c1` (centres unmarked) | -2.95 |
| `COc1ccc(C(=O)N2C[C@@H](c3ccccc3)[C@@H]3NCCCC[C@@H]32)cc1` | -9.255 |
| `O=c1[nH]c2ccccc2cc1CN(Cc1ccccn1)CC1CCCO1` (centres unmarked) | -1.636 |
| `CNC(=O)C1(CCCc2ccccn2)CN(Cc2scnc2C)C1` | 12.16 |
| `CCCc1noc(CCC(=O)Nc2cc(C(F)(F)F)c[nH]c2=O)n1` | -0.4968 |
| `CN(CCCOc1ccccc1Cl)C(=O)CN1CCCCCC1=O` | 1.905 |
| `CC(=O)N1CCC(N2CCOC(CC3CCCCC3)C2)CC1` (centres unmarked) | 3.468 |
| `CC(=O)Nc1ccc(CNCC(O)c2ccc(Cl)cc2)cc1` (centres unmarked) | 5.431 |
| `Cc1cnn(CCC(=O)N2CCCC(c3cc(C)[nH]n3)C2)c1` (centres unmarked) | 22.74 |
| `O=C(NCCNc1ccccn1)NC1CCCC1` | -0.2337 |
| `CC(NC(=O)CCC(=O)c1cccs1)c1nnc2n1CCC2` (centres unmarked) | -4.446 |
| `O=C(NCCNc1cnccn1)N1CCN(Cc2cccnc2)CC1` | 1.462 |
| `Cc1cc(N2CCC(N(C)Cc3cccnc3)C2=O)n(C)n1` (centres unmarked) | 11.02 |
| `CCCn1nc2c(cc1=O)CN(C(C)C(=O)Nc1nccs1)CC2` (centres unmarked) | -2.082 |
| `Cc1ncc2c(n1)CCN(Cc1nc3ccccc3o1)C2` | -3.125 |
| `CCc1c(C(=O)N2C[C@H]3CC[C@@H]2CN(c2cnccn2)C3)csc1C` | -0.361 |
| `CN(CCC(F)(F)F)Cc1nc2ccccc2c(=O)[nH]1` | -6.507 |
| `Cc1cc(C2CCCN(S(=O)(=O)c3cn[nH]c3)C2)ccn1` (centres unmarked) | -4.706 |
| `CCc1nc(C2CCCN2CCC(=O)N2CCc3ccccc32)no1` (centres unmarked) | 17.3 |
| `CC(C)N1CC2(CCC1=O)CCN(C(=O)c1cc(F)ccc1Cl)CC2` | 1.029 |